The text below walks through data of patent US10626145B2 (CAREGEN CO., LTD., priority 2015, dated 2020).

The data set in a line: general procedure: peptide synthesis; chlorotrityl chloride resin (CTL resin, Nova biochem Cat No. 01-64-0021). The settings on record: whole synthesis.

In turn, “NH2-Leu-Lys-Thr-Arg-Asn-COOH (LKTRN; Peptide 1)” gave a crude mass of 0.85 g. The same substance came in with a crude yield (scale of the general procedure 700 mg resin) of 92%.
